{"source": "patent US11161829B1", "about": "“Dihydrofuran chalcone compound and preparation method thereof” (SOUTH CHINA BOTANICAL GARDEN, CHINESE ACADEMY OF SCIENCES, priority 2018, dated 2021)", "assay": "DPPH radical scavenging assay", "format": "biochemical", "conditions": "0.2 mM DPPH in ethanol, 30 minutes in dark at room temperature, absorbance at 517 nm; read-out: IC50 value against DPPH radicals", "method": "DPPH is a stable free radical. When a free radical scavenger is present, light absorption of DPPH will be reduced when the single electron is scavenged, which allows to evaluate free radical scavenging ability of the substance and accordingly determine antioxidant ability thereof. The DPPH radical scavenging ability of the dihydrofuran chalcone was measured through the DPPH radical scavenging assay, so as to evaluate the antioxidant ability of the compound. The assay comprised the following steps: 1,1-Diphenyl-2-picrylhydrazyl (DPPH) was dissolved in absolute ethanol to obtain a solution with a concentration of 0.2 mM. The dihydrofuran chalcone was dissolved in absolute ethanol. 80 μL of the ethanol solution of dihydrofuran chalcone and 160 μL of the 0.2 mM DPPH ethanol solution were mixed and the mixture was placed in dark at room temperature for 30 minutes. Then, light absorbance at 517 nm was measured using a microplate reader (SpectraMax 190, Molecular Devices, USA), and Vc was employed as a positive control.", "note": "At least one compound was matched to its structure with a doubt left.", "data": [{"smiles": "CC(C)(O)C1Cc2c(O)ccc(C(=O)/C=C/c3ccc(O)cc3O)c2O1", "note": "(stereo not shown) [compound 1, dihydrofuran chalcone]", "values": [{"measurement": "IC50", "value": 32.7, "unit": "µM"}]}]}
